Measurements as given in publication PMC10163288.
Some of the results follow.

B1: il10ra_site1_normal_mot_HHH_b2_00612_000000251_0001_1_14_H_._HHH_b1_08403_0001_0000400019_0000001_0 (protein)
chain: SSSSSNEEYFREVRELLEEASEIDDPEERQEVLREALELAEEGNNQLLFESVEYLLRLEESSSSS
B2: il10ra_site1_sap_21_mot_HHH_b2_02337_000000026_0001_38_52_H_._HHH_b1_04531_0002_0000100002_0000001_0_0001 (protein)
chain: SSSSSSSEEERAEELLEEAKEIEDPKERNEVLLEALRLAIQLQDPELLRLVWRVVHELSSSSSSS
B3: il10ra_site1_sap_25_mot_HHH_b1_05757_000000171_0001_42_57_H_._HHH_b1_04495_0001_0000100001_0000001_0_0001 (protein)
chain: SSSSDEWYREVKEIIERIIELLRRGNKEEAEELLERLEELAEEANTPSLEFAVRLLQRELNSSSS
B4: il10ra_site1_normal_mot_15066a8f41c19a04ca9a9f0a9d91fe83_0001_000000267_0001_1_12_H_._5560783f366cbf3ae937180e39aeb462_0001_af2_0001_0000600014_0000001_0 (protein)
chain: DELEELLREAEELGDEDVVEVAEKLLELVRRGEIPPQNVEALEYILEFALKGDPNAKAIVRAFLR
B5: il10ra_site1_sap_18_mot_HHH_b2_02053_af2_000000006_0001_3_19_H_._HHH_b1_04063_0001_0000800036_0000001_0_0001 (protein)
chain: SSSSDISQEIYELLREAAELHHDGNPEEARKVLEEAEELAEEAGSPNLEEIIEFLLRKVNSSSSS
B6: il10ra_site1_normal_mot_HHH_b2_02736_000000092_0001_22_38_H_._HHH_b1_05779_af2_0001_0000300011_0000001_0 (protein)
chain: SSSSDEIAQQIYELLRRVIELHAEGNPEEAREVLEEAKELAEEANNEVLLHIVEFLEELLSSSSS
B7: il10ra_site1_normal_mot_HHH_b2_00441_000000147_0001_1_18_H_._HHH_b1_01824_0001_0000200015_0000001_0 (protein)
chain: SSSSSEEERRYVELALRFVRLLFKDNEEVAEHLLRLMIQTLERLGDEELIRLLQELLEEISSSSS
B8: il10ra_site1_sap_15_mot_HHH_b1_03653_af2_000000109_0001_1_20_H_._HHH_b1_05348_0001_0000100001_0000001_1_0001 (protein)
chain: SSSSDVEERLEELLKELEELVEEGDTEKFARVAQEAVRLAFRAQDEEVLQRLWELVKELASSSSS
B9: il10ra_site1_normal_mot_3af0db62db2b275566dae2e03bf881fa_0001_000000003_0001_37_50_H_._HHH_b1_07841_0001_0000400021_0000001_0_af2pred_0001 (protein)
chain: SSSSSDRHLRERARAQLRYAELAENPLVARIALEIALKLAEEVNDEELEEEIRRLLEELNSSSSS
B10: il10ra_site1_sap_23_mot_0e2ed5c3f75edde9391a46279eb78c18_0001_000000219_0001_53_65_H_._HHH_b1_07215_af2_0001_0000200011_0000001_0_0001_af2pred_0001 (protein)
chain: DDEEIKERIKREGDPRLNLLSLALFLLKRGVPPRQVELAVKSNAKLLGVPPEEVEELIEEAKELK
B11: il10ra_site1_normal_mot_HHH_b1_01082_af2_000000031_0001_3_19_H_._HHH_b2_07681_0001_0000100003_0000001_0 (protein)
chain: SSSSDEEYEEVKRLIEEIVRLIREGNPEEARKLLEELEELAEETNNPALKFVVELLERDINSSSS
B12: il10ra_site1_normal_mot_HHH_b1_05357_000000034_0001_23_39_H_._HHH_b2_03085_af2_0001_0000400017_0000001_0_af2pred_0001 (protein)
chain: SSSSSEILERVSYLLVRIYALLNSGDHEEAEELEEEVKKVAEEGNDERAKVLIEAFERVISSSSS
B13: il10ra_site1_sap_16_mot_HHH_b2_00369_000000164_0001_40_55_H_._8679c99a27c02dac6322965991044887_0001_0001_0000500022_0000001_0_0001 (protein)
chain: SSSSSEDRELIEAALRLARQAYEWGDPESVRALLWAAQFLAEEINDPELEEKIEELEEELSSSSS
B14: il10ra_site1_sap_25_mot_HHH_b1_05185_000000011_0001_22_39_H_._HHH_b2_08085_0001_0000600021_0000001_0_0001 (protein)
chain: SSSSDEEYEERIRELLEEAEELEDPEERIRLLLEAVRLAYEVNDEELLQLVWEVAKKLGGSSSSS
B15: il10ra_site1_sap_17_mot_HHH_b2_02463_af2_000000222_0001_1_19_H_._HHH_b1_05597_0001_0000400019_0000001_0_0001 (protein)
chain: SSSSDEEAQRLFQAVWELVKRGDEEELEKLLEEIEKLLEEDPRLRKNLRMAAAAARAFLRSSSSS
B16: il10ra_site1_normal_mot_8756ee2cf497b5429c717dfc0c0bcfd6_0001_000000186_0001_1_13_H_._HHH_b1_01984_af2_0001_0000500012_0000001_0_af2pred_0001 (protein)
chain: SSSSSDIKELFELLRRIAELLHEGDEEEAEELIRQAKEIAEELNNLVAEAILRFLEKHLDSSSSS
B17: il10ra_site1_normal_mot_HHH_b2_08186_000000021_0001_43_56_H_._HHH_b1_01436_0001_0000300037_0000001_0 (protein)
chain: SSSSDEEEEEIRRLLEELEELIREGDHEKVAELALRILRLIFEASNEELLKILWRLLKEFGSSSS
B18: il10ra_site1_normal_mot_HHH_b2_00479_000000091_0001_1_12_H_._HHH_b2_01146_0001_0000600069_0000002_0 (protein)
chain: SSSSSDADEIYELLREALELLANGNPEEARKVLEEAEELAEEAGNFTFEFAIRTLQREANSSSSS
B19: il10ra_site1_sap_16_mot_HHH_b2_06480_000000127_0001_1_19_H_._HHH_b1_07210_0001_0000100002_0000001_0_0001 (protein)
chain: SSSSDMEEYIELSLRFAEWLLEAGDPEAARRILEAARDAAEKINNEELKEEIERLQEEVRSSSSS
B20: il10ra_site1_sap_16_mot_HHH_b2_00943_af2_000000149_0001_1_17_H_._HHH_b2_07075_0001_0000400028_0000002_0_0001 (protein)
chain: SSSSSEEKERIEELIEEAERLLENGDPRRAVRVLAEAVRHAHRISDEELLQELWEIIKKVESSSS
B21: il10ra_site1_normal_mot_HHH_b1_07641_af2_000000285_0001_1_21_H_._HHH_b1_03085_af2_0001_0000100001_0000001_0_af2pred_0001 (protein)
chain: SSSSDTEEAQRLLREAVELLREGNPEEAREIAEEALKLAEEAGNVALAWSIRYLLEIIERLSSSS
B22: il10ra_site1_normal_mot_HHH_b2_05813_000000266_0001_1_19_H_._HHH_b1_02684_0001_0000500010_0000001_0_af2pred_0001 (protein)
chain: SSSSSSEEFLFEVLVEARRLLEKGNPEEAQEVIEEAREHAEERNDEHVLLILEAALRILESSSSS
B23: il10ra_site1_sap_27_mot_HHH_b2_08186_000000021_0001_43_56_H_._HHH_b2_01381_0001_0000600034_0000001_0_0001 (protein)
chain: SSSSDEAYEIAREAAEKANQLWEQGNEEEARELIEEALEELEKLGNWAALWALRHMLRANSSSSS
B24: il10ra_site1_normal_mot_HHH_b2_05423_000000119_0001_22_38_H_._HHH_b2_02720_0001_0000400043_0000001_1_af2pred_0001 (protein)
chain: SSSSSEEELLKRLLEAVKRAAEQNDPHRVEAALRDAKHTAEFLNDEEVLEELERLEEEFNSSSSS
B25: il10ra_site1_sap_22_mot_HHH_b1_00169_000000276_0001_1_18_H_._HHH_b1_00842_0001_0000200007_0000001_0_0001 (protein)
chain: SSSSDEEREELYEILEEVIKLASEGDEEEFEELVREAEELAKELGNWVVRHVLELLRRDLSSSSS
B26: il10ra_site1_normal_mot_HHH_b1_00999_000000080_0001_41_55_H_._HHH_b1_00228_0001_0000300021_0000001_0 (protein)
chain: SSSSDVEEEVEELLEEAKEIPDPRELSRVLLEALRLALEASDQELLQLVWRVVKELGERLSSSSS
B27: il10ra_site1_normal_mot_HHH_b2_03220_af2_000000223_0001_23_40_H_._HHH_b1_01064_0001_0000400033_0000002_0 (protein)
chain: SSSSSEERERVWELIRRVLELRAQGDPEEARELLEEARELAEEANSPVLRFALRLLEEQLSSSSS
B28: il10ra_site1_sap_18_mot_HHH_b1_06341_af2_000000167_0001_17_35_H_._HHH_b2_05323_0001_0000300018_0000001_0_0001 (protein)
chain: SSSSDEAEELYRLSEEAMELAAEGNPEEAREVVREAIELAEEANNRVLLFVLRHVLEQLESSSSS
B29: il10ra_site1_sap_12_mot_HHH_b2_07532_000000061_0001_23_39_H_._HHH_b2_03266_0001_0000500042_0000001_0_0001 (protein)
chain: SSSSDEREAYELSREAAELDSEGDPEKAEEVLEEALELAEELNNMNIVMVIRYILRLVRENSSSS
B30: il10ra_site1_sap_26_mot_HHH_b2_03183_af2_000000055_0001_40_56_H_._HHH_b1_06195_0001_0000200011_0000001_1_0001_af2pred_0001 (protein)
chain: SSSSDLVEEVKRLLEEALKLLKEGDEEEARRLVEEAKELAERNNNLLLLRSIEAIERVVNSSSSS
B31: il10ra_site1_sap_16_mot_HHH_b1_06048_000000117_0001_42_56_H_._HHH_b1_00210_0001_0000200020_0000001_0_0001 (protein)
chain: SSSSDEAYRLAKRAIEEATRLWREGNPEEARRLLQEALEELEELGNWAAVWAIRHLLKALSSSSS
B32: il10ra_site1_sap_4_mot_HHH_b2_01447_af2_000000258_0001_1_20_H_._HHH_b1_07772_0001_0000100001_0000002_0_0001 (protein)
chain: SSSSDTRELYRLSREAMELLARGNPEEAEKVLEEAIEIAREAGDFNFLFNLEHVLKVIEQSSSSS
B33: il10ra_site1_normal_mot_HHH_b2_05896_000000051_0001_1_18_H_._HHH_b1_01447_0001_0000400020_0000001_0 (protein)
chain: SSSSSSDEEFRKILELIEKASQIEDPEERREVLEEAEELAEEAGNELLEESVRFVARLLSSSSSS
B34: il10ra_site1_normal_mot_HHH_b2_00441_000000147_0001_1_18_H_._HHH_b1_01947_af2_0001_0000200006_0000001_1_af2pred_0001 (protein)
chain: SSSSSERDREFARRALRLAEFLYKQGDHEAVERAFEAVEDLAKLTNDPEIEEILEEIEELLSSSS
B35: il10ra_site1_normal_mot_HHH_b1_00929_000000068_0001_1_20_H_._HHH_b2_07604_0001_0000100006_0000002_0 (protein)
chain: SSSDALEEVWELIREAVEALEQGDQERAEELVEEAREIAEEANNILARFAVRAIERAVRLRSSSS
B36: il10ra_site1_sap_19_mot_HHH_b2_00076_000000055_0001_40_55_H_._HHH_b1_00748_0001_0000100001_0000001_0_0001 (protein)
chain: SSSSSDEVYRLIKKAIELLAEGNPEEAKKVLEEAEELAERAGNRILVWAIRFAEELLERQSSSSS
B37: il10ra_site1_sap_22_mot_HHH_b1_03574_000000194_0001_1_18_H_._HHH_b1_05657_0001_0000100016_0000001_0_0001 (protein)
chain: SAEEKLEELAEEAGIPPEELERLIELVARLAGVPPELVLDAIEQIARQSRVPPAEAARILVRAYR

The binders below were run against il10ra, Q13651 (assay: yeast display titration).

Apparent Kd, inactive:
B1 no binding seen
B2 no binding seen
B3 no binding seen
B4 no binding seen
B5 no binding seen
B6 no binding seen
B7 no binding seen
B8 no binding seen
B9 no binding seen
B10 no binding seen
B11 no binding seen
B12 no binding seen
B13 no binding seen
B14 no binding seen
B15 no binding seen
B16 no binding seen
B17 no binding seen
B18 no binding seen
B19 no binding seen
B20 no binding seen
B21 no binding seen
B22 no binding seen
B23 no binding seen
B24 no binding seen
B25 no binding seen
B26 no binding seen
B27 no binding seen
B28 no binding seen
B29 no binding seen
B30 no binding seen
B31 no binding seen
B32 no binding seen
B33 no binding seen
B34 no binding seen
B35 no binding seen
B36 no binding seen
B37 no binding seen

Random excerpt: 3 records from the list
Apparent Kd, inactive:
B7 no binding seen
B17 no binding seen
B13 no binding seen
